Test results as given in PubChem BioAssay AID2685 (National Center for Advancing Translational Sciences (NCATS), 2010).
The other results are listed elsewhere or left out. The main result of the screen is listed elsewhere. These columns were measured beside it and carry no call. Compounds called inactive in the main read-out are mostly missing here. The note in brackets gives the kind of curve behind each potency; many fits are weak.

Assay: qHTS Assay for Lipid Storage Modulators in Drosophila S3 Cells;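 on cell number change: cells counted by Cell Tracker Red CMTPX staining in the red channel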
Conditions: BODIPY lipid droplet fluorescence, 18-24 h; for cell number change: measured here: cell count max response, cells fed with added oleic acid
In short: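 Drosophila S3 cells got compounds at several concentrations plus oleic acid (400 uM solution). Laser-scanning cytometry with 488 nm excitation read lipid droplets at 500-530 nm and cells at 575-640 nm. Percent activity was relative to 20 uM Triacsin C.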

[1] = measured here: cell number channel AC50, cells fed with added oleic acid
[2] = measured here: lipid fluorescence (Fed channel) AC50, cells fed with added oleic acid

SMILES | cell number change | AC50 [1] | AC50 [2]
CCC1(C)Cc2ccccc2-c2nc(NCCO)n(-c3ccc(C)cc3)c(=O)c21 (stereo not drawn) | 30.1% | 10.3 µM [rising, single point] | –
O=C(CCc1nc2ccccc2c(=O)[nH]1)Nc1nnc(SCc2ccccc2F)s1 | 11.2% | – | 0.00517 µM [rising, full curve, poor fit]
CN1C(=O)C(CC(=O)Nc2ccc(F)cc2)N(Cc2ccco2)C1=S (stereo not drawn) | -13.7% | – | 25.9 µM [falling, single point]
COc1ccc(C(CNC(=O)C(CCSC)NC(=O)c2ccccc2Cl)N2CCOCC2)cc1 (stereo not drawn) | – | 6.51 µM [falling, single point] | 6.51 µM [falling, single point]
CCN1CCC(C(=O)NC2CCCC2)(N(Cc2cccs2)C(=O)Cn2nnc3ccccc32)CC1 | -12.1% | – | –
Cc1ccc(S(=O)(=O)N(C)C)cc1NC(=O)COC(=O)/C=C/c1ccc2ccccc2n1 | 22.2% | – | 23.1 µM [falling, single point]
CSc1nc2ncc(-c3ccsc3)c(N)n2n1 | -45.3% | 1.64 µM [falling, full curve] | 1.3 µM [falling, full curve]
CC(c1ccccc1)N1CC(C(=O)N2CCN(Cc3ccc(C#N)cc3)CC2)CC1=O (stereo not drawn) | 22.5% | – | –
CCc1ccc(S(=O)(=O)Nc2cc3c(cc2N2CCOCC2)n(C)c(=O)c(=O)n3C)cc1 | -72.1% | 29.1 µM [falling, single point] | –
COCCCN(C(=S)Nc1cc(C)cc(C)c1)C(C)c1ccncc1 (stereo not drawn) | 2.82% | – | –
CC(Sc1nc(N)cc(=O)[nH]1)C(=O)NNC(=O)c1cccc(Cl)c1 (stereo not drawn) | -7.46% | – | 8.2 µM [rising, partial curve]
COc1cccc(/C=C2\SC(=S)N(CCC(=O)N3CCCCC3)C2=O)c1 | 34.2% | 29.1 µM [rising, single point] | –
Cc1c(NC(=O)COC(=O)CCC(=O)c2ccc(Cl)cc2)c(=O)n(-c2ccccc2)n1C | 17% | – | –
CCOc1ccc(-n2c(SCc3cc(=O)oc4cc(C)ccc34)nnc2-c2cccnc2)cc1 | -1.35% | – | 6.51 µM [rising, single point]
Cc1ccccc1-c1cc(C(=O)NCc2ccco2)n(CC2CC(c3cccnc3)=NO2)n1 (stereo not drawn) | -30.7% | 29.1 µM [falling, single point] | –
O=C(Nc1ccc(OC(F)(F)F)cc1)C1CCCCN1S(=O)(=O)c1ccccc1 (stereo not drawn) | 120% | 16.4 µM [rising, single point] | –
COc1c(C)cc(Br)cc1C(=O)Nc1cccc(-c2nc3ncccc3o2)c1 | – | – | 1.16 µM [falling, partial curve]
Clc1nc2c(ccc3ccccc32)[nH]1 | 12.1% | – | –
O=C(CSc1nc2ccccc2c(=O)n1Cc1ccc(Cl)cc1)NCc1cccs1 | -2.32% | – | –
CCCOC(=O)C(C)Sc1n[nH]c(=O)[nH]c1=O (stereo not drawn) | – | – | 0.0231 µM [rising, full curve, poor fit]
C#CCN1C(=O)C(O)(CC(=O)c2cc(OC)ccc2OC)c2ccccc21 (stereo not drawn) | 14.7% | – | 0.731 µM [rising, full curve]

As entered above.
Entry for Cc1c(NC(=O)COC(=O)CCC(=O)c2ccc(Cl)cc2)c(=O)n(-c2ccccc2)n1C under cell number change: 17%
Entry for O=C(CCc1nc2ccccc2c(=O)[nH]1)Nc1nnc(SCc2ccccc2F)s1 under AC50 [2]: 0.00517 µM [rising, full curve, poor fit]

Next results follow:

SMILES | cell number change | AC50 [1] | AC50 [2]
COCCCn1c(Cc2csc(Nc3ccc(F)cc3)n2)nnc1SCC(N)=O | -1.75% | – | 29.1 µM [rising, single point]
CC(C)CNC(C)C(=O)Nc1ccc(S(N)(=O)=O)cc1 (stereo not drawn) | -11.1% | – | –
Nc1ncnc2c1ncn2CCOc1ccccc1 | 7.54% | – | 2.06 µM [rising, full curve]
CCOC(=O)c1csc(NC(=O)Nc2cccc(Cl)c2)n1 | -50% | 29.1 µM [falling, single point] | –
CC(C)(C)c1ccc(C(=O)OCC(=O)N2CCC(c3ccccc3)=N2)cc1 | 13% | – | 29.1 µM [rising, single point]
COCCn1nnnc1C(c1ccc(C)cc1)N1CCN(Cc2ccc3c(c2)OCO3)CC1 (stereo not drawn) | -0.908% | – | –
COc1cc(SC)ccc1C(=O)OCC(=O)NCCC1=CCCCC1 | -12.2% | – | 16.4 µM [falling, partial curve]
CCCc1nc(N)nc2c1C(=O)CC(C)(C)C2 | 8.98% | – | 6.51 µM [rising, single point]
O=C(CSc1ccc2c(c1)OCCO2)NCC1CCCO1 (stereo not drawn) | 11.2% | 0.146 µM [rising, full curve, poor fit] | –
C[C@H](NC(=O)c1nc[nH]c1C(=O)NCC(=O)OCc1ccccc1)C(=O)OCc1ccccc1 | -1.5% | – | –
COc1ccccc1CCNC(=O)C(=O)c1cn(CC(=O)N2CCCC2)c2ccccc12 | -17.3% | – | 15.8 µM [falling, single point]
O=C1NC(=O)C2(COC3(CCCC3)OC2)S1 | -36.1% | 0.231 µM [falling, full curve] | 2.06 µM [falling, full curve]
COC(=O)c1[nH]c2cccc(OC)c2c1NC(=O)CN1CC2(C)CC1CC(C)(C)C2 (stereo not drawn) | – | 6.51 µM [falling, single point] | 6.51 µM [falling, partial curve]
Cc1cc(C)nc(SCCCn2c(=O)[nH]c3ccccc32)n1 | -30.9% | – | 0.00411 µM [falling, full curve, poor fit]
O=C(CN1CCC(n2nnc3ccccc32)CC1)NCc1cccs1 | 0.794% | – | –
COc1cc(/C=N/NC(=O)c2ccc(CN(C)S(=O)(=O)c3ccc(C)cc3)cc2)ccc1O | -47.4% | 23.1 µM [falling, single point] | 3.66 µM [falling, full curve]
CCOc1ccc(N=C2NC(=O)CS2)cc1 | 18.6% | – | 29.1 µM [rising, single point]
CNC(=O)c1[nH]cnc1C(=O)Nc1ccc(F)cc1 | 16.9% | – | 9.2 µM [rising, partial curve, poor fit]
CCCCCN(C(=O)NC(=O)NC(C)CC)S(C)(=O)=O (stereo not drawn) | 11.2% | – | –
CCOC(=O)c1c(NC(=O)CSc2nc3ccccc3s2)sc(C(C)=O)c1C | -14.5% | – | 18.4 µM [falling, single point]
CC(C)(C)NC(=O)CSc1nncn1NCc1ccccc1 | -14.5% | 0.82 µM [falling, full curve] | 0.651 µM [falling, full curve, poor fit]

3 compounds out of the list, sorted by SMILES length, falling.
SMILES | cell number change | AC50 [1] | AC50 [2]
O=C(CSc1nc2ccccc2c(=O)n1Cc1ccc(Cl)cc1)NCc1cccs1 | -2.32% | – | –
COc1cccc(/C=C2\SC(=S)N(CCC(=O)N3CCCCC3)C2=O)c1 | 34.2% | 29.1 µM [rising, single point] | –
O=C(CSc1ccc2c(c1)OCCO2)NCC1CCCO1 (stereo not drawn) | 11.2% | 0.146 µM [rising, full curve, poor fit] | –

Next part.

SMILES | cell number change | AC50 [1] | AC50 [2]
CC(C)CC(OC(=O)c1ccco1)C(=O)NCC1CCCO1 (stereo not drawn) | -0.204% | – | 14.6 µM [rising, partial curve, poor fit]
O=C(CN1CCC(c2nc3ccccc3s2)CC1)N1CCCCC1 | -27.5% | – | 1.46 µM [falling, partial curve, poor fit]
COC(=O)c1ccc2c(c1)N(Cc1nc(-c3cccc(C)c3)oc1C)C(=O)C1CCCN21 (stereo not drawn) | – | – | 9.2 µM [rising, single point]
Cc1ccc(O)c(NC(=O)c2cc(-c3ccccc3Cl)on2)c1 | -46.3% | 13 µM [falling, partial curve, poor fit] | –
Cc1c(C(=O)Nc2ccccn2)oc2ccc(Br)cc12 | -1.12% | – | –
CCCCC(=O)Nc1cccc(C(=O)N/N=C/c2ccc(OC)cc2OC)c1 | 44.5% | 7.31 µM [rising, partial curve] | 3.26 µM [rising, single point]
CCCCn1nnnc1SCC(=O)N1CCN(C(=O)c2ccco2)CC1 | -3.57% | – | 0.259 µM [falling, full curve, poor fit]
CC(=O)N1CCN(C(=O)C(Cc2c[nH]c3ccccc23)NC(=O)c2ccccc2Cl)CC1 (stereo not drawn) | 24.4% | – | 16.4 µM [falling, partial curve]
CN1CCN(CCC(=O)N/N=C/c2cc([N+](=O)[O-])ccc2OC(F)F)CC1 | 0.11% | 6.51 µM [rising, single point] | –
Cc1ccc(NC(=O)c2c(-c3c(F)cccc3Cl)noc2C)cc1F | -17.7% | – | –
COc1ccc(-c2ccc3c(c2)S(=O)(=O)c2cccc(C(=O)NC4CCCCC4)c2C3=O)cc1OC | -11.1% | 3.66 µM [falling, single point] | 16.4 µM [rising, single point]
CCOC(=O)Nc1ccc2c(c1)N(C(=O)N1CCN(C)CC1)c1ccccc1CC2 | 21.1% | – | –
CCCn1c(NC(=O)c2ccc(Br)cc2)nc2ccccc21 | – | 0.411 µM [rising, full curve] | 0.291 µM [rising, partial curve, poor fit]
CC1=NN(C(=O)COc2ccc(C)c(C)c2)C(O)(c2ccc(Cl)cc2)C1 (stereo not drawn) | -8.92% | – | 1.84 µM [rising, partial curve, poor fit]
COCCNC(=S)N1CCCC(CO)C1 (stereo not drawn) | -17.3% | – | 3.66 µM [falling, single point]
Cc1cccc(NC(=O)CCCN2C(=O)c3ccccc3C2=O)n1 | -16.8% | – | 4.61 µM [falling, partial curve, poor fit]
N#Cc1ccc(OCC(=O)N2CCN(S(=O)(=O)c3cccc(Cl)c3)CC2)cc1 | -29.9% | – | 18.4 µM [falling, single point]
CCCCNC(=O)c1ccccc1SCC(=O)NC1CCCCCCC1 | 25.4% | – | 0.00731 µM [rising, full curve, poor fit]
Cn1c(=O)n(C)c2cc(NC(=O)CSc3nnc(-c4ccccc4O)n3-c3ccccc3)ccc21 | – | 1.3 µM [rising, full curve] | 0.731 µM [rising, full curve]
CN(C)C(CNS(=O)(=O)c1ccc2ccccc2c1)c1ccccc1 (stereo not drawn) | 7.67% | – | –
Cc1cc(C)nc(SCC(=O)Nc2ccnc3ccccc23)n1 | -36.9% | – | –
